Results are given in words; binding and its absence hold for the method and conditions named. In cells and extracts the contact can be indirect. Here binding means that the protein was enriched with, or labelled near, the bait; the list need not be complete.
B1: STX12 (protein, UniProt Q86Y82 1-276)
chain: MSYGPLDMYRNPGPSGPQLRDFSSIIQTCSGNIQRISQATAQIKNLMSQLGTKQDSSKLQENLQQLQHSTNQLAKETNELLKELGSLPLPLSTSEQRQQRLQKERLMNDFSAALNNFQAVQRRVSEKEKESIARARAGSRLSAEERQREEQLVSFDSHEEWNQMQSQEDEVAITEQDLELIKERETAIRQLEADILDVNQIFKDLAMMIHDQGDLIDSIEANVESSEVHVERATEQLQRAAYYQKKSRKKMCILVLVLSVIILILGLIIWLVYKTK
B2: TMEM87b (protein, UniProt Q96K49 43-555)
chain: VPELGLWLETVNDKSGPLIFRKTMFNSTDIKLSVKSFHCSGPVKFTIVWHLKYHTCHNEHSNLEELFQKHKLSVDEDFCHYLKNDNCWTTKNENLDCNSDSQVFPSLNNKELINIRNVSNQERSMDVVARTQKDGFHIFIVSIKTENTDASWNLNVSLSMIGPHGYISASDWPLMIFYMVMCIVYILYGILWLTWSACYWKDILRIQFWIAAVIFLGMLEKAVFYSEYQNISNTGLSTQGLLIFAELISAIKRTLARLLVIIVSLGYGIVKPRLGTVMHRVIGLGLLYLIFAAVEGVMRVIGGSNHLAVVLDDIILAVIDSIFVWFIFISLAQTMKTLRLRKNTVKFSLYRHFKNTLIFAVLASIVFMGWTTKTFRIAKCQSDWMERWVDDAFWSFLFSLILIVIMFLWRPSANNQRYAFMPLIDDSDDEIEEFMVTSENLTEGIKLRASKSVSNGTAKPATSENFDEDLKWVEENIPSSFTDVALPVLVDSDEEIMTRSEMAEKMFSSEKIM
B3: ABCG2 (protein, UniProt Q9UNQ0 1-655)
chain: MSSSNVEVFIPVSQGNTNGFPATASNDLKAFTEGAVLSFHNICYRVKLKSGFLPCRKPVEKEILSNINGIMKPGLNAILGPTGGGKSSLLDVLAARKDPSGLSGDVLINGAPRPANFKCNSGYVVQDDVVMGTLTVRENLQFSAALRLATTMTNHEKNERINRVIQELGLDKVADSKVGTQFIRGVSGGERKRTSIGMELITDPSILFLDEPTTGLDSSTANAVLLLLKRMSKQGRTIIFSIHQPRYSIFKLFDSLTLLASGRLMFHGPAQEALGYFESAGYHCEAYNNPADFFLDIINGDSTAVALNREEDFKATEIIEPSKQDKPLIEKLAEIYVNSSFYKETKAELHQLSGGEKKKKITVFKEISYTTSFCHQLRWVSKRSFKNLLGNPQASIAQIIVTVVLGLVIGAIYFGLKNDSTGIQNRAGVLFFLTTNQCFSSVSAVELFVVEKKLFIHEYISGYYRVSSYFLGKLLSDLLPMRMLPSIIFTCIVYFMLGLKPKADAFFVMMFTLMMVAYSASSMALAIAAGQSVVSVATLLMTICFVFMMIFSGLLVNLTTIASWLSWLQYFSIPRYGFTALQHNEFLGQNFCPGLNATGNNPCNYATCTGEEYLVKQGIDLSPWGLWKNHVALACMIVIFLTIAYLKLLFLKKYS
B4: TAB1 (protein, UniProt Q15750 1-504)
chain: MAAQRRSLLQSEQQPSWTDDLPLCHLSGVGSASNRSYSADGKGTESHPPEDSWLKFRSENNCFLYGVFNGYDGNRVTNFVAQRLSAELLLGQLNAEHAEADVRRVLLQAFDVVERSFLESIDDALAEKASLQSQLPEGVPQHQLPPQYQKILERLKTLEREISGGAMAVVAVLLNNKLYVANVGTNRALLCKSTVDGLQVTQLNVDHTTENEDELFRLSQLGLDAGKIKQVGIICGQESTRRIGDYKVKYGYTDIDLLSAAKSKPIIAEPEIHGAQPLDGVTGFLVLMSEGLYKALEAAHGPGQANQEIAAMIDTEFAKQTSLDAVAQAVVDRVKRIHSDTFASGGERARFCPRHEDMTLLVRNFGYPLGEMSQPTPSPAPAAGGRVYPVSVPYSSAQSTSKTSVTLSLVMPSQGQMVNGAHSASTLDEATPTLTNQSPTLTLQSTNTHTQSSSSSSDGGLFRSRPAHSLPPGEDGRVEPYVDFAEFYRLWSVDHGEQSVVTAP

Biological target: SARS-CoV-2 Envelope (E) protein T9I (Omicron-associated), StrepII-tagged (SARS-CoV-2) (UniProt P0DTC4)
Assay: affinity purification with mass spectrometry

Molecule	binding
SNX12 (from UniProt Q9UMY4 1-162)	binds
B1	binds
B2	binds
B3	binds
B4	binds

— paper doi:10.1101/2024.04.23.590789
